From patent US5260257A, “Thermal transfer sheet” (Dai Nippon Printing Co., Ltd., priority 1991, dated 1993)

Tests used:
[1] = recording density (densitometer RD-918, Macbeth); settings: 10 V, 4.0 msec
[2] = dye migration resistance of recorded image (70° C., 48 hr, sharpness and coloration of white paper); set-up: key: .circleincircle.: no change in the sharpness was observed and rubbing of the surface with white paper gave rise to no coloration of the white paper; .largecircle.: the sharpness of the image was slightly lost and the white paper was slightly colored; Δ: the sharpness of the image was lost and the white paper was colored; X: the image became unclear and the white paper was remarkably colored
[3] = Table A3, Comparative Examples A1-A6
[4] = Table B3, Comparative Examples B1-B6
[5] = Table C (C3), Comparative Examples C1-C6

| SMILES | Recording density ([1]; Table B2, dyes of Table B1) | Dye migration resistance ([2]; Table B2, dyes of Table B1) | Recording density ([1]; Table C2, dyes of Table C1) | Dye migration resistance ([2]; Table C2, dyes of Table C1) | also measured |
| --- | --- | --- | --- | --- | --- |
| CNc1ccc(NC)c2c1C(=O)c1ccccc1C2=O [Comp. Ex. A1, C.I. Disperse Blue 14, reference compound] | – | – | – | – | Recording density [1, 3]: 1.01; Recording density [1, 4]: 1.01; Recording density [1, 5]: 1.01; Dye migration resistance [2, 3]: X; Dye migration resistance [2, 4]: X; Dye migration resistance [2, 5]: X |
| CC(C)Nc1ccc(NC(C)C)c2c1C(=O)c1ccccc1C2=O [Comp. Ex. A2, C.I. Disperse Blue 134, reference compound] | – | – | – | – | Recording density [1, 3]: 1.15; Recording density [1, 4]: 1.15; Recording density [1, 5]: 1.15; Dye migration resistance [2, 3]: Δ; Dye migration resistance [2, 4]: Δ; Dye migration resistance [2, 5]: Δ |
| CNc1ccc(Nc2cccc(C)c2)c2c1C(=O)c1ccccc1C2=O [Comp. Ex. A3, C.I. Solvent Blue 63, reference compound] | – | – | – | – | Recording density [1, 3]: 2.13; Recording density [1, 4]: 2.13; Recording density [1, 5]: 2.13; Dye migration resistance [2, 3]: X; Dye migration resistance [2, 4]: X; Dye migration resistance [2, 5]: X |
| CNc1ccc(O)c2c1C(=O)c1c(O)ccc(NC)c1C2=O [Comp. Ex. A4, C.I. Disperse Blue 26, reference compound] | – | – | – | – | Recording density [1, 3]: 1.25; Recording density [1, 4]: 1.25; Recording density [1, 5]: 1.25; Dye migration resistance [2, 3]: Δ; Dye migration resistance [2, 4]: Δ; Dye migration resistance [2, 5]: Δ |
| CNc1ccc(N)c2c1C(=O)c1ccccc1C2=O [Comp. Ex. A5, C.I. Disperse Violet 4, reference compound] | – | – | – | – | Recording density [1, 3]: 1.05; Recording density [1, 4]: 1.05; Recording density [1, 5]: 1.05; Dye migration resistance [2, 3]: X; Dye migration resistance [2, 4]: X; Dye migration resistance [2, 5]: X |
| CCN(CC)c1ccc(N=C2C=C(NC(=O)c3ccccc3)C(=O)C(Cl)=C2C)c(C)c1 [Comparative Example A6, reference compound] | – | – | – | – | Recording density [1, 3]: 1.87; Dye migration resistance [2, 3]: Δ |
| CCN(CC)c1ccc(N=C2C=C(NC(=O)c3ccccc3)C(=O)C(Cl)=C2C)c(C)c1 [Comparative Example B6, reference compound] | – | – | – | – | Recording density [1, 4]: 1.87; Dye migration resistance [2, 4]: Δ |
| CCN(CC)c1ccc(N=C2C=C(NC(=O)c3ccccc3)C(=O)C(Cl)=C2C)c(C)c1 [Comparative Example C6, reference compound] | – | – | – | – | Recording density [1, 5]: 1.87; Dye migration resistance [2, 5]: Δ |
| CCN(CC)c1ccc(N=C2C=C(NC(=O)C3CC=CCC3)C(=O)C(Cl)=C2C)c(C)c1 (stereo not shown) [Dye No. 1 in Table B1] | 1.83 | .largecircle. | – | – | – |
| CCN(CC)c1ccc(N=C2C=C(NC(=O)C3CC4C=CC3C4)C(=O)C(Cl)=C2C)c(C)c1 (stereo not shown) [Dye No. 1 in Table C1] | – | – | 1.78 | .largecircle. | – |
| CCN(CCO)c1ccc(N=C2C=C(NC(=O)C3CC=CCC3)C(=O)C(Cl)=C2C)c(C)c1 (stereo not shown) [Dye No. 2 in Table B1] | 1.80 | .largecircle. | – | – | – |
| CCN(CC)c1ccc(N=C2C=CC(=O)C(NC(=O)C3CC4C=CC3C4)=C2)c(C)c1 (stereo not shown) [Dye No. 2 in Table C1] | – | – | 1.86 | Δ | – |
| CCN(CC)c1ccc(N=C2C=C(NC(=O)C3CC=CCC3)C(=O)C=C2NC(C)=O)c(C)c1 (stereo not shown) [Dye No. 3 in Table B1] | 1.86 | .largecircle. | – | – | – |
| CCN(CCO)c1ccc(N=C2C=C(NC(=O)C3CC4C=CC3C4)C(=O)C(Cl)=C2C)c(C)c1 (stereo not shown) [Dye No. 3 in Table C1] | – | – | 1.77 | .largecircle. | – |
| CCOc1cc(N(CC)CC)ccc1N=C1C=CC(=O)C(NC(=O)C2CC=CCC2)=C1 (stereo not shown) [Dye No. 4 in Table B1] | 1.89 | .largecircle. | – | – | – |
| CCN(CC)c1ccc(N=C2C=C(NC(=O)C3CC4C=CC3C4)C(=O)C=C2NC(C)=O)c(C)c1 (stereo not shown) [Dye No. 4 in Table C1] | – | – | 1.77 | .largecircle. | – |
| CCC1=C(Cl)C(=O)C(NC(=O)C2CC=CCC2)=CC1=Nc1ccc(N(CC)CC)cc1C (stereo not shown) [Dye No. 5 in Table B1] | 1.84 | .largecircle. | – | – | – |
| CCOc1cc(N(CC)CC)ccc1N=C1C=CC(=O)C(NC(=O)C2CC3C=CC2C3)=C1 (stereo not shown) [Dye No. 5 in Table C1] | – | – | 1.80 | .largecircle. | – |
| CCN(CC)c1ccc(N=C2C=C(NC(=O)C3CC=CCC3)C(=O)C(Cl)=C2C)c(NC(C)=O)c1 (stereo not shown) [Dye No. 6 in Table B1] | 1.72 | .largecircle. | – | – | – |
| CCN(CC)c1ccc(N=C2C=C(NC(=O)C3CC4C=CC3C4)C(=O)C(Cl)=C2C)cc1 (stereo not shown) [Dye No. 6 in Table C1] | – | – | 1.82 | .largecircle. | – |
| CCN(CCCl)c1ccc(N=C2C=C(NC(=O)C3CC=CCC3)C(=O)C(Cl)=C2C)c(NC(=O)NC)c1 (stereo not shown) [Dye No. 7 in Table B1] | 1.67 | .largecircle. | – | – | – |
| CCC1=C(Cl)C(=O)C(NC(=O)C2CC3C=CC2C3)=CC1=Nc1ccc(N(CC)CC)cc1C (stereo not shown) [Dye No. 7 in Table C1] | – | – | 1.76 | .largecircle. | – |

| SMILES | Recording density ([1]; Table B2, dyes of Table B1) | Dye migration resistance ([2]; Table B2, dyes of Table B1) | Recording density ([1]; Table C2, dyes of Table C1) | Dye migration resistance ([2]; Table C2, dyes of Table C1) | also measured |
| --- | --- | --- | --- | --- | --- |
| CCOc1cc(N(CC)CC)ccc1N=C1C=CC(=O)C(NC(=O)C2C=CCCC2)=C1 (stereo not shown) [Dye No. 8 in Table B1] | 1.77 | .largecircle. | – | – | – |
| CCN(CC)c1ccc(N=C2C=C(NC(=O)C3CC4C=CC3C4)C(=O)C(Cl)=C2C)c(NC(C)=O)c1 (stereo not shown) [Dye No. 8 in Table C1] | – | – | 1.72 | .largecircle. | – |
| CCOc1cc(N(CC)CCO)ccc1N=C1C=C(NC(=O)C2=CCCCC2)C(=O)C=C1NC(C)=O [Dye No. 9 in Table B1] | 1.72 | .largecircle. | – | – | – |
| CCN(CCCl)c1ccc(N=C2C=C(NC(=O)C3CC4C=CC3C4)C(=O)C(Cl)=C2C)c(NC(=O)NC)c1 (stereo not shown) [Dye No. 9 in Table C1] | – | – | 1.66 | .largecircle. | – |
| CCN(CC)c1ccc(N=C2C=C(NC(=O)C3=CCC=CC3)C(=O)C(Cl)=C2C)c(C)c1 [Dye No. 10 in Table B1] | 1.88 | .largecircle. | – | – | – |
| CCOc1cc(N(CC)CCO)ccc1N=C1C=C(NC(=O)C2CC3C=CC2C3)C(=O)C=C1NC(C)=O (stereo not shown) [Dye No. 10 in Table C1] | – | – | 1.70 | .largecircle. | – |
| CCN(CC)c1ccc(N=C2C=CC(=O)C(NC(=O)C3C=CCC=C3)=C2)c(NC(C)=O)c1 [Dye No. 11 in Table B1] | 1.86 | .largecircle. | – | – | – |
| CCN(CC)c1ccc(N=C2C=C(NC(=O)C3=CC4C=CC3C4)C(=O)C(Cl)=C2C)c(C)c1 (stereo not shown) [Dye No. 11 in Table C1] | – | – | 1.75 | .largecircle. | – |
| CCN(CC)c1ccc(N=C2C=CC(=O)C(NC(=O)C3=CC4C=CC3C4)=C2)c(NC(C)=O)c1 (stereo not shown) [Dye No. 12 in Table C1] | – | – | 1.74 | .largecircle. | – |
| CCN(CCC#N)c1ccc(N=C2C=C(NC(=O)C3CC=CC3)C(=O)C(Cl)=C2C)c(NS(C)(=O)=O)c1 [Dye No. 13 in Table B1] | 1.67 | .largecircle. | – | – | – |
| CCN(Cc1ccccc1)c1ccc(N=C2C=C(NC(=O)C3=CC4C=CC3C4)C(=O)C=C2NC(C)=O)cc1 (stereo not shown) [Dye No. 13 in Table C1] | – | – | 1.71 | .largecircle. | – |
| CCN(CCNS(C)(=O)=O)c1ccc(N=C2C=C(NC(=O)C3CC=CC3)C(=O)C=C2NS(C)(=O)=O)c(C)c1 [Dye No. 14 in Table B1] | 1.65 | .largecircle. | – | – | – |
| CCN(CCC#N)c1ccc(N=C2C=C(NC(=O)C3=CC4C=CC3C4)C(=O)C(Cl)=C2C)c(NS(C)(=O)=O)c1 (stereo not shown) [Dye No. 14 in Table C1] | – | – | 1.61 | .largecircle. | – |
| CCN(c1ccccc1)c1ccc(N=C2C=C(NC(=O)C3CC=CC3)C(=O)C=C2NC(=O)NC)c(Cl)c1 [Dye No. 15 in Table B1] | 1.70 | .largecircle. | – | – | – |
| CCN(c1ccccc1)c1ccc(N=C2C=C(NC(=O)C3=CC4C=CC3C4)C(=O)C=C2NC(=O)NC)c(Cl)c1 (stereo not shown) [Dye No. 15 in Table C1] | – | – | 1.62 | .largecircle. | – |
| CCN(c1ccccc1)c1ccc(N=C2C=C(NC(=O)C3=CCCC3)C(=O)C=C2NC(=O)NC)c(Cl)c1 [Dye No. 17 in Table B1] | 1.64 | .largecircle. | – | – | – |
| CCOCCN(CC)c1ccc(N=C2C=C(NC(=O)C3CC4CCC3C4)C(=O)C(Cl)=C2C)c(C)c1 (stereo not shown) [Dye No. 17 in Table C1] | – | – | 1.72 | .largecircle. | – |
| CCN(CC)c1ccc(N=C2C=C(NC(=O)C3=CCC=CC3)C(=O)C(Cl)=C2C)cc1 [Dye No. 18 in Table B1] | 1.84 | .largecircle. | – | – | – |
| CCN(CC)c1ccc(N=C2C=C(NC(=O)C3CC4C=C(C)C3C4)C(=O)C(Cl)=C2C)c(C)c1 (stereo not shown) [Dye No. 18 in Table C1] | – | – | 1.79 | .largecircle. | – |
| CCN(CCOC)c1ccc(N=C2C=C(NC(=O)C3=CCC=CC3)C(=O)C=C2NC(C)=O)c(NC(C)=O)c1 [Dye No. 19 in Table B1] | 1.66 | .largecircle. | – | – | – |
| CCOc1cc(N(CC)CC)c(OCC)cc1N=C1C=C(NC(=O)C2CC3C=C(C)C2C3)C(=O)C(Cl)=C1C (stereo not shown) [Dye No. 19 in Table C1] | – | – | 1.63 | .largecircle. | – |
